This is an account of results in publication PMC11933467.

By UniProt entry, the sequences of proteins in these tests, tags left out. Where a name states a change or a piece, a line headed by the entry shows the natural chain unless it says otherwise.
UniProt Q9VWS1: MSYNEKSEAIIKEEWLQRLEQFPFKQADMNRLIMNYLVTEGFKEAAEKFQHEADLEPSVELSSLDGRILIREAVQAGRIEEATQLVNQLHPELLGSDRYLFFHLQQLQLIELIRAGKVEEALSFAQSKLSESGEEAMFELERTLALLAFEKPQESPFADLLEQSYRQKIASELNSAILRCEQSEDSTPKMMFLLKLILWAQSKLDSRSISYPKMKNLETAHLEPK

Test [1] concerns the target Houki (Drosophila melanogaster (endogenous in embryos)) (UniProt Q9VWS1). As to the kind of experiment: affinity purification with mass spectrometry; anti-Houki immunoprecipitation from 0 to 1 h embryo lysate against IgG control; on-bead digestion, LC-MS/MS; three biological replicates.
Test [2] deals with Muskelin (Drosophila melanogaster (endogenous in embryos and oocytes)). As to the kind of experiment: affinity purification with mass spectrometry; anti-Muskelin immunoprecipitation from 0 to 1 h control (mCherry) or RanBPM knockdown embryo lysate against control immunoprecipitation; LC-MS/MS; three biological replicates.

No constants are given. Whether binding was seen depends on the method and setting. Binding seen in cells or lysates may run through a third protein. A yes stands for co-enrichment or nearness to the bait. Other partners may have been found. For part of these data: Tags and fused reporters may be left off the sequences shown.

B1: Cup (protein, UniProt Q9VMA3 1-1117)
chain: MQMAEAEQENGAGALKIATNAGATDRPAHQQLPLPVEDQQDEVLTPAEKGKFEYPPPPPPPTPVQAPLATKATALNASQEHDDDEANSEKWEDPCAPPPPPPLPTSAFLATGLGYLKLPAFKLKDALEKAITKLEANKRTLKASPESSRSIKNKNVVALEMLPRRSNPETIGDGSMLASTSTAVMLQTKKPAVIVEMERRCKIINLLAKQNQILESISGEAIPMHGPSKHLHEDEGLTLQVLSARASTPYTQPSSMLSCTAVSCDLEHDSPRKQVASKEAVPEQQSSQVQQKRPPSTGIHKPGSLRAPKAVRPTTAPVVSSKPVKSYTRSRLMDIRNGMFNALMHRSKESFVMPRIATCDDIELEGRLRRMNIWRTSDGTRFRTRSTTANLNMNNNNNNECMPAFFKNKNKPNLISDESIIQSQPPQPQTEFQDPAIVNQRRIGSGRLNHSKWGYNDEDYHSYHNGKSQHMEEVNSKNSKNMTVLQFFDNGEISSQPQRRPNTPVMGMSINRSENDTLHSNESSEDLSRANENYVKRVMSGFLVVSKPKSRDVEDRHHRRYRNQNEEPEWFSCGPTSRLDTIELCGFDEDEEKMLKEGNKNHGLGETERETSKQKMDHKYKWTHAEPMGRSKYMPKHDTNNNHNVENMNNVMATEHQQQKEEKRPGSGRSFQFDKFNQSQQNYESSSYVNHQQPPQTQPQQMQQQSNTNTNNSKFMSFFANEGNSSSSSLNEFFKQAINQGHGNNPEQPKSLGHIGQMPSVDQLEAKWRRNSLNNVGETANKQTDNFQKLIGSLSSAKPQSQAVGYDAISNFIMQQQQYQQQQQKQHLIIQQQQQHTAFLASLQLKAILGRADTQLLLLRLTKGEISKHGLLVQLANPRLTDMDREAITAVLQFTNTQQQQQQHKQQLDMLSSTVIASQLQNLHNLAIVQQTLAARQQPQHNPQTQAPHQLSQEDLQAHANVIMRNAVMKRKIEEQTSKLINGGAKHQAQQQYLNRGQQRQARPDANSNALLHALISGGGNNHASGYPMNGQPQKHHSNLRFGDNQNFQSFESNQPHFATQYKQQYQQSQQQHPHQQPQQLNSLHQNNAGAVNSFNKAQMQAQSAISMLPNSGDEFH
Consider B1, for which the binding entry in test [1] and in test [2] was “binds” in each case.

B2: ME31B-GFP (protein, UniProt P23128 1-459)
chain: MMTEKLNSGHTNLTSKGIINDLQIAGNTSDDMGWKSKLKLPPKDNRFKTTDVTDTRGNEFEEFCLKRELLMGIFEKGWERPSPIQEAAIPIALSGKDVLARAKNGTGKTGAYCIPVLEQIDPTKDYIQALVMVPTRELALQTSQICIELAKHLDIRVMVTTGGTILKDDILRIYQKVQLIIATPGRILDLMDKKVADMSHCRILVLDEADKLLSLDFQGMLDHVILKLPKDPQILLFSATFPLTVKNFMEKHLREPYEINLMEELTLKGVTQYYAFVQERQKVHCLNTLFSKLQINQSIIFCNSTQRVELLAKKITELGYCCYYIHAKMAQAHRNRVFHDFRQGLCRNLVCSDLFTRGIDVQAVNVVINFDFPRMAETYLHRIGRSGRFGHLGIAINLITYEDRFDLHRIEKELGTEIKPIPKVIDPALYVANVGASVGDTCNNSDLNNSANEEGNVSK
Take B2: in test [2], the binding entry is reported as “binds”.
